# Laboratory results published in the supplement of paper PMC8728848.
# The other results are listed elsewhere or left out.
# Columns and labels:
# Assay in all cases: glycan array binding signal (z-score within array); higher = stronger binding
# Details in all cases: glycan notation: IUPAC condensed, linker removed
# [1] = target: Gal(b1-3)GlcNAc(b1-2)Man(a1-3)[Gal(b1-3)GlcNAc(b1-2)Man(a1-6)]Man(b1-4)GlcNAc(b1-4)[Fuc(a1-6)]GlcNAc
# Method in brief: (§1)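 The binding signal is a Z-score computed within each array. Data were drawn from 3228 arrays in the Consortium for Functional Glycomics database, restricted to those with a known protein sequence. Scores were averaged over arrays of the same protein sequence at different concentrations or buffers, and over linkers, and negative values can be taken as non-binding.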
# [2] = target: Gal(b1-3)GlcNAc(b1-2)Man(a1-3)[GlcNAc(b1-4)][Gal(b1-3)GlcNAc(b1-2)Man(a1-6)]Man(b1-4)GlcNAc(b1-4)GlcNAc
# Method in brief: as §1
# [3] = target: Gal(b1-3)GlcNAc(b1-2)[Gal(b1-3)GlcNAc(b1-6)]Man(a1-6)[Gal(b1-3)GlcNAc(b1-2)Man(a1-3)]Man(b1-4)GlcNAc(b1-4)GlcNAc
# Method in brief: as §1
# [4] = target: Gal(b1-3)GlcNAc(b1-3)Gal(b1-3)GlcNAc
# Method in brief: as §1
# [5] = target: Gal(b1-3)GlcNAc(b1-3)Gal(b1-4)Glc
# Method in brief: as §1
# [6] = target: Gal(b1-3)GlcNAc(b1-3)Gal(b1-4)GlcNAc
# Method in brief: as §1
# [7] = target: Gal(b1-3)GlcNAc(b1-3)Gal(b1-4)GlcNAc(b1-2)Man(a1-3)[Gal(b1-3)GlcNAc(b1-3)Gal(b1-4)GlcNAc(b1-2)Man(a1-6)]Man(b1-4)GlcNAc(b1-4)GlcNAc
# Method in brief: as §1
# [8] = target: Gal(b1-3)GlcNAc(b1-3)Gal(b1-4)GlcNAc(b1-2)[Gal(b1-3)GlcNAc(b1-3)Gal(b1-4)GlcNAc(b1-6)]Man(a1-6)[Gal(b1-3)GlcNAc(b1-3)Gal(b1-4)GlcNAc(b1-2)Man(a1-3)]Man(b1-4)GlcNAc(b1-4)[Fuc(a1-6)]GlcNAc
# Method in brief: as §1
# [9] = target: Gal(b1-3)GlcNAc(b1-3)Gal(b1-4)GlcNAc(b1-3)Gal(b1-4)GlcNAc(b1-2)[Gal(b1-3)GlcNAc(b1-3)Gal(b1-4)GlcNAc(b1-3)Gal(b1-4)GlcNAc(b1-6)]Man(a1-6)[Gal(b1-3)GlcNAc(b1-3)Gal(b1-4)GlcNAc(b1-3)Gal(b1-4)GlcNAc(b1-2)Man(a1-3)]Man(b1-4)GlcNAc(b1-4)[Fuc(a1-6)]GlcNAc
# Method in brief: as §1
# [10] = target: Gal(b1-3)GlcNAc(b1-3)Gal(b1-4)GlcNAc(b1-6)[Gal(b1-3)GlcNAc(b1-3)]Gal(b1-4)Glc
# Method in brief: as §1
# [11] = target: Gal(b1-3)GlcNAc(b1-3)Gal(b1-4)[Fuc(a1-3)]GlcNAc
# Method in brief: as §1
# [12] = target: Gal(b1-3)GlcNAc(b1-3)Gal(b1-4)[Fuc(a1-3)]GlcNAc(b1-6)[Gal(b1-3)GlcNAc(b1-3)]Gal(b1-4)Glc
# Method in brief: as §1
# [13] = target: Gal(b1-3)GlcNAc(b1-3)GalNAc
# Method in brief: as §1
# [14] = target: Gal(b1-3)GlcNAc(b1-6)Gal(b1-4)GlcNAc
# Method in brief: as §1
# [15] = target: Gal(b1-3)GlcNAc(b1-6)GalNAc
# Method in brief: as §1
# [16] = target: Gal(b1-3)GlcNAc(b1-6)[Gal(b1-3)]GalNAc
# Method in brief: as §1
# Gal(b1-3)GlcNAc6S = target: Gal(b1-3)GlcNAc6S
# Method in brief: as §1
# [17] = target: Gal(b1-3)[Fuc(a1-4)]GlcNAc
# Method in brief: as §1
# [18] = target: Gal(b1-3)[Fuc(a1-4)]GlcNAc(b1-2)Man
# Method in brief: as §1
# [19] = target: Gal(b1-3)[Fuc(a1-4)]GlcNAc(b1-2)Man(a1-3)[Gal(b1-3)[Fuc(a1-4)]GlcNAc(b1-2)Man(a1-6)]Man(b1-4)GlcNAc(b1-4)[Fuc(a1-6)]GlcNAc
# Method in brief: as §1
# [20] = target: Gal(b1-3)[Fuc(a1-4)]GlcNAc(b1-3)Gal(b1-3)[Fuc(a1-4)]GlcNAc
# Method in brief: as §1
# [21] = target: Gal(b1-3)[Fuc(a1-4)]GlcNAc(b1-3)Gal(b1-4)[Fuc(a1-3)]GlcNAc
# Method in brief: as §1
# [22] = target: Gal(b1-3)[Fuc(a1-4)]GlcNAc(b1-6)GalNAc
# Method in brief: as §1
# [23] = target: Gal(b1-3)[GlcNAc(b1-6)]GalNAc
# Method in brief: as §1
# [24] = target: Gal(b1-3)[Neu5Ac(a2-6)]GalNAc
# Method in brief: as §1
# [25] = target: Gal(b1-3)[Neu5Ac(a2-6)]GlcNAc(b1-4)Gal(b1-4)Glc
# Method in brief: as §1
# [26] = target: Gal(b1-3)[Neu5Ac(b2-6)]GalNAc
# Method in brief: as §1
# Gal(b1-4)Gal = target: Gal(b1-4)Gal
# Method in brief: as §1
# [27] = target: Gal(b1-4)GalNAc(a1-3)[Fuc(a1-2)]Gal(b1-4)GlcNAc
# Method in brief: as §1
# [28] = target: Gal(b1-4)GalNAc(b1-3)[Fuc(a1-2)]Gal(b1-4)GlcNAc
# Method in brief: as §1
# Gal(b1-4)Glc = target: Gal(b1-4)Glc
# Method in brief: as §1
# Gal(b1-4)Glc6S = target: Gal(b1-4)Glc6S
# Method in brief: as §1
# Gal(b1-4)GlcNAc = target: Gal(b1-4)GlcNAc
# Method in brief: as §1
# [29] = target: Gal(b1-4)GlcNAc(a1-6)Gal(b1-4)GlcNAc
# Method in brief: as §1
# Gal(b1-4)GlcNAc(b1-2)Man = target: Gal(b1-4)GlcNAc(b1-2)Man
# Method in brief: as §1
# [30] = target: Gal(b1-4)GlcNAc(b1-2)Man(a1-3)Man(b1-4)GlcNAc(b1-4)GlcNAc
# Method in brief: as §1
# [31] = target: Gal(b1-4)GlcNAc(b1-2)Man(a1-3)[Gal(b1-4)GlcNAc(b1-2)Man(a1-6)]Man(b1-4)GlcNAc(b1-4)GlcNAc
# Method in brief: as §1
# [32] = target: Gal(b1-4)GlcNAc(b1-2)Man(a1-3)[Gal(b1-4)GlcNAc(b1-2)Man(a1-6)]Man(b1-4)GlcNAc(b1-4)[Fuc(a1-6)]GlcNAc
# Method in brief: as §1
# [33] = target: Gal(b1-4)GlcNAc(b1-2)Man(a1-3)[Gal(b1-4)GlcNAc(b1-2)Man(a1-6)][Gal(b1-4)GlcNAc(b1-4)]Man(b1-4)GlcNAc(b1-4)[Fuc(a1-6)]GlcNAc
# Method in brief: as §1
# [34] = target: Gal(b1-4)GlcNAc(b1-2)Man(a1-3)[Gal(b1-4)GlcNAc(b1-2)Man(a1-6)][GlcNAc(b1-4)]Man(b1-4)GlcNAc(b1-4)[Fuc(a1-6)]GlcNAc
# Method in brief: as §1
# [35] = target: Gal(b1-4)GlcNAc(b1-2)Man(a1-3)[GlcNAc(b1-2)Man(a1-6)]Man(b1-4)GlcNAc(b1-4)GlcNAc
# Method in brief: as §1
# [36] = target: Gal(b1-4)GlcNAc(b1-2)Man(a1-3)[GlcNAc(b1-4)][Gal(b1-4)GlcNAc(b1-2)Man(a1-6)]Man(b1-4)GlcNAc(b1-4)GlcNAc
# Method in brief: as §1
# [37] = target: Gal(b1-4)GlcNAc(b1-2)Man(a1-3)[Man(a1-6)]Man(b1-4)GlcNAc(b1-4)GlcNAc
# Method in brief: as §1
# [38] = target: Gal(b1-4)GlcNAc(b1-2)Man(a1-6)Man(b1-4)GlcNAc(b1-4)GlcNAc
# Method in brief: as §1
# [39] = target: Gal(b1-4)GlcNAc(b1-2)Man(a1-6)[GlcNAc(b1-2)Man(a1-3)]Man(b1-4)GlcNAc(b1-4)GlcNAc
# Method in brief: as §1
binder,measurement,setting,value
"AntigenI/IIA3VP1 (Streptococcus mutans), C9E3B4 (protein) AANEADYQAKLTAYQTELARVQKANADAKAAYEAAVAANNAANAALTAENTAIKKRNADAKADYEAKLAKYQADLAKYQKDLADYPVKLKAYEDEQASIKAALAELEKHKNEDGNLTEPSAQNLVYDLEPNANLSLTTDGKFLKASAVDDAFSKSTSKAKYDQKILQLDDLDITNLEQSNDVASSMELYGNFGDKAGWSTTVSNNSQVKWGSVLLERGQSATATYTNLQNSYYNGKKISKIVYKYTVDPKSKFQGQKVWLGIFTDPTLGVFASAYTGQVEKNTSIFIKNEFTFYDEDGKPINFDNALLSVASLNREHNSIEMAKDYSGKFVKISGSSIGEKNGMIYATDTLNFKQGEGGSRWTMYKNSQAGSGWDSSDAPNSWYGAGAIKMSGPNNYVTVGATSATNVMPVSDMPVVPGKDNTDGKKPNIWYSLNGKIRAVNVPKVTKEKPTPPVKPTAPTKPTYETEKPLKPAPVAPNYEKEPTPPTRLEHHHHHH",glycan array binding signal (z-score),[1],0.484
same,glycan array binding signal (z-score),[2],1.13
same,glycan array binding signal (z-score),[3],0.815
same,glycan array binding signal (z-score),[4],1.59
same,glycan array binding signal (z-score),[5],-0.068
same,glycan array binding signal (z-score),[6],0.485
same,glycan array binding signal (z-score),[7],-0.072
same,glycan array binding signal (z-score),[8],1.15
same,glycan array binding signal (z-score),[9],5.61
same,glycan array binding signal (z-score),[10],-1.08
same,glycan array binding signal (z-score),[11],-0.402
same,glycan array binding signal (z-score),[12],-0.769
same,glycan array binding signal (z-score),[13],-0.215
same,glycan array binding signal (z-score),[14],-0.879
same,glycan array binding signal (z-score),[15],-1.15
same,glycan array binding signal (z-score),[16],-0.091
same,glycan array binding signal (z-score),Gal(b1-3)GlcNAc6S,0.094
same,glycan array binding signal (z-score),[17],-0.532
same,glycan array binding signal (z-score),[18],0.065
same,glycan array binding signal (z-score),[19],0.264
same,glycan array binding signal (z-score),[20],-1.39
same,glycan array binding signal (z-score),[21],0.182
same,glycan array binding signal (z-score),[22],3.1
same,glycan array binding signal (z-score),[23],0.649
same,glycan array binding signal (z-score),[24],-0.775
same,glycan array binding signal (z-score),[25],-0.671
same,glycan array binding signal (z-score),[26],-1.08
same,glycan array binding signal (z-score),Gal(b1-4)Gal,0.659
same,glycan array binding signal (z-score),[27],-0.098
same,glycan array binding signal (z-score),[28],-1.5
same,glycan array binding signal (z-score),Gal(b1-4)Glc,0.298
same,glycan array binding signal (z-score),Gal(b1-4)Glc6S,1.2
same,glycan array binding signal (z-score),Gal(b1-4)GlcNAc,-0.744
same,glycan array binding signal (z-score),[29],1.05
same,glycan array binding signal (z-score),Gal(b1-4)GlcNAc(b1-2)Man,0.599
same,glycan array binding signal (z-score),[30],-0.226
same,glycan array binding signal (z-score),[31],-1.12
same,glycan array binding signal (z-score),[32],1.81
same,glycan array binding signal (z-score),[33],-0.213
same,glycan array binding signal (z-score),[34],-1.22
same,glycan array binding signal (z-score),[35],-0.073
same,glycan array binding signal (z-score),[36],-0.555
same,glycan array binding signal (z-score),[37],1.67
same,glycan array binding signal (z-score),[38],0.216
same,glycan array binding signal (z-score),[39],-0.498

# Given tab-delimited: part of the list above.
binder	measurement	setting	value
AntigenI/IIA3VP1 (Streptococcus mutans), C9E3B4 (protein) AANEADYQAKLTAYQTELARVQKANADAKAAYEAAVAANNAANAALTAENTAIKKRNADAKADYEAKLAKYQADLAKYQKDLADYPVKLKAYEDEQASIKAALAELEKHKNEDGNLTEPSAQNLVYDLEPNANLSLTTDGKFLKASAVDDAFSKSTSKAKYDQKILQLDDLDITNLEQSNDVASSMELYGNFGDKAGWSTTVSNNSQVKWGSVLLERGQSATATYTNLQNSYYNGKKISKIVYKYTVDPKSKFQGQKVWLGIFTDPTLGVFASAYTGQVEKNTSIFIKNEFTFYDEDGKPINFDNALLSVASLNREHNSIEMAKDYSGKFVKISGSSIGEKNGMIYATDTLNFKQGEGGSRWTMYKNSQAGSGWDSSDAPNSWYGAGAIKMSGPNNYVTVGATSATNVMPVSDMPVVPGKDNTDGKKPNIWYSLNGKIRAVNVPKVTKEKPTPPVKPTAPTKPTYETEKPLKPAPVAPNYEKEPTPPTRLEHHHHHH	glycan array binding signal (z-score)	Gal(b1-4)Glc6S	1.2
same	glycan array binding signal (z-score)	Gal(b1-4)GlcNAc	-0.744
same	glycan array binding signal (z-score)	[29]	1.05
same	glycan array binding signal (z-score)	Gal(b1-4)GlcNAc(b1-2)Man	0.599
